Laboratory results reported in the supplement of paper PMC10849652.
This is one part of the list.

Chains of the proteins cited; added tags and fusions are not shown. Lines headed by an entry give the natural chain unless they say otherwise; changes in a name come on top.
UniProt P25788: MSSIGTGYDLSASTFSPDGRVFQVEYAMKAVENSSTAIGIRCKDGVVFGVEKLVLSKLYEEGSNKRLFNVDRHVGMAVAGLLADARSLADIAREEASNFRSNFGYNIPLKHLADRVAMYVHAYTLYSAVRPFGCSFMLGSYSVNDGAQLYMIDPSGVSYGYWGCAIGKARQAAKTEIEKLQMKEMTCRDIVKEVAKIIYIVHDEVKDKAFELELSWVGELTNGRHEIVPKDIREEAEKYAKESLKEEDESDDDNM
UniProt Q15008: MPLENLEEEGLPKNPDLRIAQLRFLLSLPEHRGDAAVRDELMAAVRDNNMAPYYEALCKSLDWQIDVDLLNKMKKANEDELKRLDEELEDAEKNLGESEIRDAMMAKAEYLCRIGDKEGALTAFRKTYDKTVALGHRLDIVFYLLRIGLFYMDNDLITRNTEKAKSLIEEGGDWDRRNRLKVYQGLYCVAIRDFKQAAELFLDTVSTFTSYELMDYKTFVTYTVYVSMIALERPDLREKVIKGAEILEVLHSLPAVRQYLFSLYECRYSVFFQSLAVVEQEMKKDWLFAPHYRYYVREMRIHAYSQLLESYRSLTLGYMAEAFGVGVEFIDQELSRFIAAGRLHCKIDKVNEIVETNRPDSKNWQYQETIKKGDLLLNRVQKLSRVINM
UniProt P20618: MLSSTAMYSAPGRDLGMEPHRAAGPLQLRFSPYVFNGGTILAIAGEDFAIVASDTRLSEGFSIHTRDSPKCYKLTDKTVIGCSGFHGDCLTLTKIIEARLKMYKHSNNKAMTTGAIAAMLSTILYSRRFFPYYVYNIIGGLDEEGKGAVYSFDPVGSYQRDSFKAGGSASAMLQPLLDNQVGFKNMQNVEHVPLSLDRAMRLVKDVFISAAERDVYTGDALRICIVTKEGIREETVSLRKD
UniProt P18031: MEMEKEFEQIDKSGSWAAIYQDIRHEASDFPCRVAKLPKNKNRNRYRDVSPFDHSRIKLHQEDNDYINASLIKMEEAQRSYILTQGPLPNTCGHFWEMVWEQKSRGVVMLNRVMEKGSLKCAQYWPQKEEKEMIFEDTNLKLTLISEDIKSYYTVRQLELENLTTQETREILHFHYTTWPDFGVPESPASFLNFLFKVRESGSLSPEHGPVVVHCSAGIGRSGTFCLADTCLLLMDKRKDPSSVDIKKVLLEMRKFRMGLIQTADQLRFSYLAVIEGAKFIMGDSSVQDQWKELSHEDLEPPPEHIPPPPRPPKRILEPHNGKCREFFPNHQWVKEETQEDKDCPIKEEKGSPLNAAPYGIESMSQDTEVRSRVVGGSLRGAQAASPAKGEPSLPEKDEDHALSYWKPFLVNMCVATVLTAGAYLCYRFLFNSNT
UniProt Q13332: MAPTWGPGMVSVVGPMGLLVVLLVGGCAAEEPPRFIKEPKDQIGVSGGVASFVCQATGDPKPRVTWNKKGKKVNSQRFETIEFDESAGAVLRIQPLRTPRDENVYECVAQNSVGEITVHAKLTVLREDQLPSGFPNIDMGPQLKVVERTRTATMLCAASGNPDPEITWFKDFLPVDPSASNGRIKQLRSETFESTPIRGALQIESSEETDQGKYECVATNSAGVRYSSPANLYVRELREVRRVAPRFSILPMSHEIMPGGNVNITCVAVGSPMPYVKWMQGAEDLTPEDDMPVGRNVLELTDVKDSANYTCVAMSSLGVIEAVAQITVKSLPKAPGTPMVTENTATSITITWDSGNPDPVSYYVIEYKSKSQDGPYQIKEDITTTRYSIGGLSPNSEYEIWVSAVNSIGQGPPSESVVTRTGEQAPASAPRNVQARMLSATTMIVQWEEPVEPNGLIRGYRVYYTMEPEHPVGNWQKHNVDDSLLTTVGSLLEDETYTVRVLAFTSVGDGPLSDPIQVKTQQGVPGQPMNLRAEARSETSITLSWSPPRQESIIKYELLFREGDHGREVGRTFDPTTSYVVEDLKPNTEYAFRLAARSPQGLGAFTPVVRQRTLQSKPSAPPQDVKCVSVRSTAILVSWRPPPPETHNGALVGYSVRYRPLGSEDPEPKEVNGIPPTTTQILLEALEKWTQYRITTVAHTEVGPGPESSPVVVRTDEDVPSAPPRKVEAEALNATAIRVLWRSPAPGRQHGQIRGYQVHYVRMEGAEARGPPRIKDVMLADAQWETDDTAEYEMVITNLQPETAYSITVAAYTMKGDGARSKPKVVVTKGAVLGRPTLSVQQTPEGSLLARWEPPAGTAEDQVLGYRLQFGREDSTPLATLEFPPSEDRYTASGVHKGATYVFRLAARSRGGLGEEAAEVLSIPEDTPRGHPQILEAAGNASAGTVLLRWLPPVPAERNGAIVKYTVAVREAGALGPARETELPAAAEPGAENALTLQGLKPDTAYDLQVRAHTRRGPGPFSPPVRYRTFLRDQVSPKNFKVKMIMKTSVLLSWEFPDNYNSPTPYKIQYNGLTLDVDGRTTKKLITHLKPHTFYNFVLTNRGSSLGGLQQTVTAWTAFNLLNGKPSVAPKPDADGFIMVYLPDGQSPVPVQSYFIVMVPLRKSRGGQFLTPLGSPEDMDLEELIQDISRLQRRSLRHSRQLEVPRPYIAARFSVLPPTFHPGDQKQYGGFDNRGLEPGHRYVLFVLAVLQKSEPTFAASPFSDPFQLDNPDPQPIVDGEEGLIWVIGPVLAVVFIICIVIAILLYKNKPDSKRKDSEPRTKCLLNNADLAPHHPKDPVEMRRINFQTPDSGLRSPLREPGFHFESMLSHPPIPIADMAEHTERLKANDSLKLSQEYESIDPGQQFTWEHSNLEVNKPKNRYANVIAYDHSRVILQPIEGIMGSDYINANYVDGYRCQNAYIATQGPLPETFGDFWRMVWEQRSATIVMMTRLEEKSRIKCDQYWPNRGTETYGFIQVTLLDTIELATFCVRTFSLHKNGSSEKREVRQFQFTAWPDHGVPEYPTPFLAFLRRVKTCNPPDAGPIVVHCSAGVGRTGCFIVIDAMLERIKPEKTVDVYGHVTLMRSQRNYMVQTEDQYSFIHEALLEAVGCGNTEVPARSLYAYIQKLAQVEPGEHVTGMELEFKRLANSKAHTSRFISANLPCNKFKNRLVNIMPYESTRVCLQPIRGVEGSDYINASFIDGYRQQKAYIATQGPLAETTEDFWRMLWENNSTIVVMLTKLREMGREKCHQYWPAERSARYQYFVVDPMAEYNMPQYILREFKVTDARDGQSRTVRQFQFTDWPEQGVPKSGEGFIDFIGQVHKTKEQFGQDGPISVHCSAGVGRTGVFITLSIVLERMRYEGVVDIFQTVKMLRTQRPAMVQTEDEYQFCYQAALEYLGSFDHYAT
UniProt Q9NRG1: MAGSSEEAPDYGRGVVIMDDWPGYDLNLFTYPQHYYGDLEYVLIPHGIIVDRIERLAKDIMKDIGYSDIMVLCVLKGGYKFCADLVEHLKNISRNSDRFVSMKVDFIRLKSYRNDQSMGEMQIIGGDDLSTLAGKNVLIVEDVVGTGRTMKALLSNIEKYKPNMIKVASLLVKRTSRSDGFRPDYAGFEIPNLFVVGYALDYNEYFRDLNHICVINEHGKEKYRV
UniProt Q5JS54: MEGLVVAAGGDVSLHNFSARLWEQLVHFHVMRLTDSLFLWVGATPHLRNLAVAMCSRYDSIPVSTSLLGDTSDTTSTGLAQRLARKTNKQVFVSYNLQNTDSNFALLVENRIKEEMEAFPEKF
UniProt Q96BW5: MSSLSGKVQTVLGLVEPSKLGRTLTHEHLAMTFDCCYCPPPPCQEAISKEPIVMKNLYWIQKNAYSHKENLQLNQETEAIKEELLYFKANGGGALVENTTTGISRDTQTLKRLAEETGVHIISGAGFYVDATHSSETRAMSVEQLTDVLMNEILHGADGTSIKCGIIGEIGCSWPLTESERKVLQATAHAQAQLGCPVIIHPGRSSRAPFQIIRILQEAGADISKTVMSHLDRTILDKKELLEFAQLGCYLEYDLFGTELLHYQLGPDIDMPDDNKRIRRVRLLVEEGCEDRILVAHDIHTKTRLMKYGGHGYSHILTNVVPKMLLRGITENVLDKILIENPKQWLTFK
UniProt Q15257: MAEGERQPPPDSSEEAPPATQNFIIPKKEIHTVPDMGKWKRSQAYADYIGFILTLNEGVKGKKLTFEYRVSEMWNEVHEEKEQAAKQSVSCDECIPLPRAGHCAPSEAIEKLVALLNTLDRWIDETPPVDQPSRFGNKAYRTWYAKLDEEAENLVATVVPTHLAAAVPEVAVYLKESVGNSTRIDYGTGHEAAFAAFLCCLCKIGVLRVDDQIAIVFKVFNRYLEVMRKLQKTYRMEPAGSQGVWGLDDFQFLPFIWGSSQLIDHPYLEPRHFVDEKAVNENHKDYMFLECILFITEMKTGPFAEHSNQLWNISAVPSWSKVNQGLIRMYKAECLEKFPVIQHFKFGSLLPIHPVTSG
UniProt P43378: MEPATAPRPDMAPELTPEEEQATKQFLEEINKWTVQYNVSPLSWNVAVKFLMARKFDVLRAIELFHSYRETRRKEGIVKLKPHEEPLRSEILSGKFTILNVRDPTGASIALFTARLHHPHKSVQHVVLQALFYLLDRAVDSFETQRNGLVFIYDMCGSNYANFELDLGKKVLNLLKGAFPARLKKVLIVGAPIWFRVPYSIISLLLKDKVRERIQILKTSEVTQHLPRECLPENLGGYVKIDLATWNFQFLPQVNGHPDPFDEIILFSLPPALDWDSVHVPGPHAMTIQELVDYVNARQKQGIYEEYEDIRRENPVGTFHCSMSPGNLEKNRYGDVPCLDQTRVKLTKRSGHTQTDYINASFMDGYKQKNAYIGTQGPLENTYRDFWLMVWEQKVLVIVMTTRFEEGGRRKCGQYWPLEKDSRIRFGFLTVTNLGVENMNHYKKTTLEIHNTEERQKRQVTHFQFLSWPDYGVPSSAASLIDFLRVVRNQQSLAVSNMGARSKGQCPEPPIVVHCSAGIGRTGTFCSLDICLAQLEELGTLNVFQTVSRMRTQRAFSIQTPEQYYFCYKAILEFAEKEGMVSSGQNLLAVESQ
UniProt P17706: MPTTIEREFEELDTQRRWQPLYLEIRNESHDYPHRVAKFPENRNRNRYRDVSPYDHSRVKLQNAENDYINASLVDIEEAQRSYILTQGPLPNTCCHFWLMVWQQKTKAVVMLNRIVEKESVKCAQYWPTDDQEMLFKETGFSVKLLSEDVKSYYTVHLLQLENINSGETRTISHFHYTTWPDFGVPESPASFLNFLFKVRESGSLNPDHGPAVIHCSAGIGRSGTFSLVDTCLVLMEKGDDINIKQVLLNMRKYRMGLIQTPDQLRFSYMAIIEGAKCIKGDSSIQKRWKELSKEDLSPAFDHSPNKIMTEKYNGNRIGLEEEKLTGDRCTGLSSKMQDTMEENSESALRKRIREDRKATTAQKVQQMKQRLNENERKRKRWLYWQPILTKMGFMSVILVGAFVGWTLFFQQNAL
UniProt P07602: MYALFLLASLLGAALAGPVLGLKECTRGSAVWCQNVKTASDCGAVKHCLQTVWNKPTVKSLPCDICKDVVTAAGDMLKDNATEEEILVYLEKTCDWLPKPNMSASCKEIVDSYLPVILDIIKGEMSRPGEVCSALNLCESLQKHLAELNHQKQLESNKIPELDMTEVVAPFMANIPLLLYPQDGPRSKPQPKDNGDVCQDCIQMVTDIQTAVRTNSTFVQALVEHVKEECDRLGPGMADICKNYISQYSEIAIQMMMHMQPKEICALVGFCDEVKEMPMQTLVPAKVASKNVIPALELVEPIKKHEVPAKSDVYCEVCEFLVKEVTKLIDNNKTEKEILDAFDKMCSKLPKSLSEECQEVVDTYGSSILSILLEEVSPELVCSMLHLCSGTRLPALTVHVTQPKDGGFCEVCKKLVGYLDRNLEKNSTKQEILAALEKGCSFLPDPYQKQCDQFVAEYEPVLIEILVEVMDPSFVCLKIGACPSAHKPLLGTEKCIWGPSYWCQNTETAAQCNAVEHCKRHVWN
UniProt P11908: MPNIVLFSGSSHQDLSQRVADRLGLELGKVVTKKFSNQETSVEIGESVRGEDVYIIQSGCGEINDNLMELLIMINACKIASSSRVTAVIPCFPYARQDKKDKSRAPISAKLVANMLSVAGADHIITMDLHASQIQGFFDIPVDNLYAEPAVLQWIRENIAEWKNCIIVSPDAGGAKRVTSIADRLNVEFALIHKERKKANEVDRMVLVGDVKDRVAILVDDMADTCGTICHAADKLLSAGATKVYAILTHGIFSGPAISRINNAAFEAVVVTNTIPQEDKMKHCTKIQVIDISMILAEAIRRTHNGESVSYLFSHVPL
UniProt P62195, whole entry, looked up: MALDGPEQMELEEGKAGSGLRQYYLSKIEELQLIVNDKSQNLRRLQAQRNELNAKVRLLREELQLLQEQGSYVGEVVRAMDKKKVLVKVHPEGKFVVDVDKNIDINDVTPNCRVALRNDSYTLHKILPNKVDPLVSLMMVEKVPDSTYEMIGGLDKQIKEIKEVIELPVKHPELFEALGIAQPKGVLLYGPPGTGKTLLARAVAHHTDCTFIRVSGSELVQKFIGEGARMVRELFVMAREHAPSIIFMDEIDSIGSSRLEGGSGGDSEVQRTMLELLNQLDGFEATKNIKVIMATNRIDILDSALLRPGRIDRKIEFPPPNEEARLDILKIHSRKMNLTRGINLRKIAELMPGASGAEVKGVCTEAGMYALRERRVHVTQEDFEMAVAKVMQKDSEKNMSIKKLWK

Experiments:
Experiment in all cases: log2 fold change, soluble protein after heating vs DMSO (PISA); higher = thermal stabilisation; K562 lysate, 10 uM; active = over 0.2 and 3.5 SD of the protein, either way, in both replicates (recomputed)
vemurafenib = compound: CCCS(=O)(=O)Nc1ccc(F)c(C(=O)c2c[nH]c3ncc(-c4ccc(Cl)cc4)cc23)c1F [vemurafenib]
In short: (§1)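 K562 pellets were dounce-homogenised in PBS pH 7.4 containing 1 mM MgCl2, and the crude extract, at 1 mg/mL protein, was exposed to 10 μM compound for 30 min. Aliquots were heated for 3 min across 48°C-58°C, pooled, brought to 0.5% NP-40 at 4°C and spun at 21,000xg for 90 min, with the supernatant taken as soluble protein. TMTpro 16plex LC-MS/MS with equalised channel sums quantified that protein. Values are log-two fold changes in thermal stability relative to solvent controls, taken from duplicates.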

[1] = compound: CCCS(=O)(=O)Nc1ccc(F)c(C(=O)c2c[nH]c3ncc(Cl)cc23)c1F
In short: as §1

barasertib = compound: CCN(CCCOc1ccc2c(Nc3cc(CC(=O)Nc4cccc(F)c4)[nH]n3)ncnc2c1)CCOP(=O)(O)O [barasertib]
In short: as §1

[2] = compound: CC[C@@H]1C(=O)N(C)c2cnc(Nc3ccc(C(=O)NC4CCN(C)CC4)cc3OC)nc2N1C1CCCC1
In short: as §1

volasertib = compound: CC[C@@H]1C(=O)N(C)c2cnc(Nc3ccc(C(=O)N[C@H]4CC[C@H](N5CCN(CC6CC6)CC5)CC4)cc3OC)nc2N1C(C)C [volasertib]
In short: as §1

[3] = compound: CCn1c(C(=O)N(C2CC2)C2CC2)cc2c3c(ncn3C)c(Nc3cc(C)n(C)n3)nc21
In short: as §1

[4] = compound: CCn1cc(-c2ccnc3[nH]c(-c4cccc(CN(C)C)c4)cc23)c(-c2ccc(NC(=O)N(C)C)cc2)n1
In short: as §1

[5] = compound: CN1CCC(CNc2ccc3ncc(-c4cccc(OC(F)(F)F)c4)n3n2)CC1
In short: as §1

saracatinib = compound: CN1CCN(CCOc2cc(OC3CCOCC3)c3c(Nc4c(Cl)ccc5c4OCO5)ncnc3c2)CC1 [saracatinib]
In short: as §1

sotrastaurin = compound: CN1CCN(c2nc(C3=C(c4c[nH]c5ccccc45)C(=O)NC3=O)c3ccccc3n2)CC1 [sotrastaurin]
In short: as §1

Measured: log2 fold change

PSMC3 (UniProt P17980)
inactive: vemurafenib 0 | [1] 0.009 | barasertib -0.017 | [2] -0.005 | volasertib -0.057 | [3] -0.021 | [4] 0.031 | [5] -0.023 | saracatinib 0.008 | sotrastaurin -0.011

PUS7 isoform 2 (UniProt Q96PZ0)
inactive: vemurafenib 0.002 | [1] 0.009 | barasertib 0.001 | [2] 0.047 | volasertib 0.013 | [3] -0.027 | [4] -0.024 | [5] 0.031 | saracatinib -0.003 | sotrastaurin 0.005

PSEN1 (UniProt P49768)
inactive: vemurafenib -0.135 | [1] -0.018 | barasertib 0.127 | [2] -0.109 | volasertib 0.006 | [3] 0.074 | [4] 0.093 | [5] -0.06 | saracatinib 0.066 | sotrastaurin -0.022

PSMA3 (UniProt P25788)
inactive: vemurafenib -0.062 | [1] -0.019 | barasertib -0.007 | [2] -0.029 | volasertib 0.032 | [3] 0.034 | [4] -0.007 | [5] 0.071 | saracatinib 0.004 | sotrastaurin 0.003

PSMD6 isoform 4 (UniProt Q15008)
inactive: vemurafenib -0.016 | [1] 0 | barasertib -0.033 | [2] 0.003 | volasertib -0.014 | [3] 0.009 | [4] 0.001 | [5] -0.022 | saracatinib 0.003 | sotrastaurin -0.002

PTRH2 (UniProt Q9Y3E5)
inactive: vemurafenib 0.01 | [1] -0.002 | barasertib -0.027 | [2] 0.065 | volasertib -0.022 | [3] 0.004 | [4] 0.145 | [5] 0.003 | saracatinib -0.021 | sotrastaurin -0.047

PTK2 (UniProt Q05397)
inactive: vemurafenib 0.017 | [1] -0.091 | barasertib -0.015 | [2] 0.352 | volasertib 0.145 | [3] 0.044 | [4] -0.001 | [5] 0.056 | saracatinib -0.023 | sotrastaurin 0.039

PSMB1 (UniProt P20618)
inactive: vemurafenib -0.018 | [1] 0.026 | barasertib -0.031 | [2] 0.084 | volasertib 0.016 | [3] -0.027 | [4] 0.006 | [5] 0.02 | saracatinib 0.048 | sotrastaurin -0.017

PTCD3 (UniProt Q96EY7)
inactive: vemurafenib 0.03 | [1] 0.012 | barasertib 0.019 | [2] -0.006 | volasertib -0.04 | [3] 0.04 | [4] 0.042 | [5] 0.021 | saracatinib -0.037 | sotrastaurin -0.027

PTPN1 (UniProt P18031)
inactive: vemurafenib 0.04 | [1] -0.005 | barasertib 0.042 | [2] -0.029 | volasertib -0.04 | [3] 0.033 | [4] -0.061 | [5] -0.03 | saracatinib 0.022 | sotrastaurin 0.069

PTMS (UniProt F5GXR3)
inactive: vemurafenib 0.052

PSMG2 (UniProt Q969U7)
inactive: vemurafenib -0.008 | [1] 0.026 | barasertib -0.07 | [2] -0.023 | volasertib 0.022 | [3] -0.004 | [4] -0.061 | [5] 0.03 | saracatinib 0.001 | sotrastaurin 0.001

PUM1 isoform 3 (UniProt Q14671)
inactive: vemurafenib -0.07 | [1] 0.013 | barasertib 0.068 | [2] 0.031 | volasertib -0.063 | [3] 0.03 | [4] 0.045 | [5] -0.084 | saracatinib 0.039 | sotrastaurin 0.016

PRPSAP1 isoform 2 (UniProt Q14558)
inactive: vemurafenib 0.029 | [1] -0.003 | barasertib -0.04 | [2] 0.053 | volasertib -0.001 | [3] -0.035 | [4] -0.036 | [5] 0.02 | saracatinib -0.014 | sotrastaurin -0.006

PTK7 isoform 6 (UniProt Q13308)
inactive: vemurafenib 0.147 | [1] -0.063 | barasertib 0.05 | [2] 0.074 | volasertib 0.018 | [3] -0.019 | [4] -0.059 | [5] 0.088 | saracatinib 0.024 | sotrastaurin 0.046

PTPRS isoform 3 (UniProt Q13332)
inactive: vemurafenib 0.006 | [1] 0.029 | barasertib 0.152 | [2] 0.12 | volasertib 0.117 | [3] -0.03 | [4] -0.015 | [5] -0.05 | saracatinib 0.009 | sotrastaurin 0.016

PRTFDC1 (UniProt Q9NRG1)
inactive: vemurafenib -0.022 | [1] -0.039 | barasertib -0.013 | [2] -0.003 | volasertib 0.03 | [3] -0.004 | [4] -0.042 | [5] 0.014 | saracatinib -0.024 | sotrastaurin 0.019

PSMG4 isoform 2 (UniProt Q5JS54)
inactive: vemurafenib 0.008 | [1] 0.012 | barasertib 0.097 | [2] 0 | volasertib 0.048 | [3] 0.073 | [4] -0.257 | [5] -0.024 | saracatinib -0.009 | sotrastaurin 0.02

PSMB10 (UniProt P40306)
inactive: vemurafenib 0.15 | [1] 0.082 | barasertib 0.024 | [2] -0.039 | volasertib -0.073 | [3] 0.093 | [4] -0.094 | [5] 0.041 | saracatinib 0.136 | sotrastaurin 0.016

PTER (UniProt Q96BW5)
inactive: vemurafenib -0.029 | [1] -0.026 | barasertib -0.007 | [2] -0.016 | volasertib 0.033 | [3] -0.009 | [4] -0.023 | [5] 0.087 | saracatinib -0.016 | sotrastaurin 0.036

PRRC1 (UniProt Q96M27)
inactive: vemurafenib -0.014 | [1] -0.002 | barasertib 0.022 | [2] 0.064 | volasertib 0.029 | [3] -0.027 | [4] -0.004 | [5] -0.005 | saracatinib 0.023 | sotrastaurin -0.01

PTPA isoform 2 (UniProt Q15257)
inactive: vemurafenib 0.013 | [1] -0.01 | barasertib -0.002 | [2] -0.008 | volasertib 0.015 | [3] -0.024 | [4] -0.108 | [5] 0.051 | saracatinib 0.015 | sotrastaurin 0.007

PTPN9 (UniProt P43378)
inactive: vemurafenib 0.09 | [1] -0.133 | barasertib 0.088 | [2] 0.239 | volasertib -0.253 | [3] -0.282 | [4] 0.082 | [5] -0.035 | saracatinib 0.064 | sotrastaurin -0.19

PTPN2 (UniProt P17706)
inactive: vemurafenib 0.027 | [1] -0.017 | barasertib 0.051 | [2] -0.028 | volasertib 0 | [3] 0.005 | [4] -0.084 | [5] -0.031 | saracatinib -0.052 | sotrastaurin 0.011

Copied from the entries so far (2 entries):
PTCD3 (UniProt Q96EY7)
inactive: vemurafenib 0.03 | [1] 0.012 | barasertib 0.019 | [2] -0.006 | volasertib -0.04 | [3] 0.04 | [4] 0.042 | [5] 0.021 | saracatinib -0.037 | sotrastaurin -0.027

PTPN1 (UniProt P18031)
inactive: vemurafenib 0.04 | [1] -0.005 | barasertib 0.042 | [2] -0.029 | volasertib -0.04 | [3] 0.033 | [4] -0.061 | [5] -0.03 | saracatinib 0.022 | sotrastaurin 0.069

Continuation.

PSMD4 (UniProt P55036)
inactive: vemurafenib -0.002 | [1] 0.004 | barasertib -0.038 | [2] 0.059 | volasertib 0.001 | [3] -0.01 | [4] 0.046 | [5] 0.026 | saracatinib 0.007 | sotrastaurin 0.014

PSAP isoform 3 (UniProt P07602)
inactive: vemurafenib 0.008 | [1] -0.063 | barasertib 0.03 | [2] 0.017 | volasertib 0.067 | [3] 0.019 | [4] -0.042 | [5] 0.024 | saracatinib 0.146 | sotrastaurin 0.04

PRRC2C isoform 7 (UniProt Q9Y520)
inactive: vemurafenib 0.009 | [1] 0.01 | barasertib 0.019 | [2] 0.078 | volasertib 0.013 | [3] 0.004 | [4] -0.009 | [5] 0.023 | saracatinib 0.011 | sotrastaurin -0.011

PTP4A2 (UniProt Q12974)
inactive: vemurafenib -0.065 | [1] -0.015 | barasertib -0.108 | [2] -0.01 | volasertib 0.079 | [3] 0.035 | [4] -0.152 | [5] 0 | saracatinib -0.096 | sotrastaurin -0.039

PRPS2 isoform 2 (UniProt P11908)
inactive: vemurafenib -0.004 | [1] -0.018 | barasertib -0.005 | [2] -0.066 | volasertib 0.002 | [3] 0.02 | [4] 0.037 | [5] 0.046 | saracatinib -0.006 | sotrastaurin -0.014

PSMC5 (UniProt P62195)
inactive: vemurafenib -0.014 | [1] 0.008 | barasertib -0.01 | [2] -0.058 | volasertib -0.041 | [3] -0.021 | [4] 0.081 | [5] -0.037 | saracatinib -0.007 | sotrastaurin 0.017
